Test results: paper PMC6066478, “Structural visualization of RNA polymerase III transcription machineries” (Cell Discovery, 2018)
Results are given in words; binding and its absence hold for the method and conditions named. Some entries that bind do so weakly or less than the wild type. Tags and fused reporters may be left off the sequences shown.

How the values were obtained:
[1] = target: T1, C34 subunit of Pol III (Saccharomyces cerevisiae) (UniProt P32910); test: cryo-EM structure; Pol III ITC, 4.1 Å: Pol III (~1 µM) with biotinylated tN(GUU)C promoter scaffold (16-nt mismatched bubble, 6-nt RNA), then Brf1N-TBPc-Brf1C and Bdp1 at about 2:1 to Pol III, room temperature; held on streptavidin beads, eluted with EcoRI-HF, crosslinked with 0.19% glutaraldehyde; both purified
T1 sequence: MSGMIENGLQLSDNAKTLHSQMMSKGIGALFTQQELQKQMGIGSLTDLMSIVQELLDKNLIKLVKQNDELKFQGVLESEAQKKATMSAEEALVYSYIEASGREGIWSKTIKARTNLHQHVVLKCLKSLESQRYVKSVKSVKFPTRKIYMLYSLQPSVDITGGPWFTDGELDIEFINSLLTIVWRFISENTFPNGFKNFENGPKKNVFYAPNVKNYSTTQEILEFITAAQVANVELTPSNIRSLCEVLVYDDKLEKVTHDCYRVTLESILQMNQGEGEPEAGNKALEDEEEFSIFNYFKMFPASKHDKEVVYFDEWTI

[2] = target: T2, TATA box-binding protein (TBP) core domain, the TBPc part of the chimera Brf1N-TBPc-Brf1C (Saccharomyces cerevisiae) (UniProt P13393); test: as above
T2 sequence: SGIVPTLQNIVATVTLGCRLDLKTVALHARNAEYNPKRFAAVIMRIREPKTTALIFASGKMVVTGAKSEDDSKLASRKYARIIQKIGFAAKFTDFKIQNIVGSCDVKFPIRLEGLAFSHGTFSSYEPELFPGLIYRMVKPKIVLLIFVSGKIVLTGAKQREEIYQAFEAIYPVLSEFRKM

[3] = target: T1, C34 subunit of Pol III (Saccharomyces cerevisiae); test: cryo-EM structure; Pol III OC, 4.1 Å (TFIIIB 4.7 Å with soft mask): same assembly on the OC scaffold with a 10-nt mismatched bubble; both purified
[4] = target: T2, TATA box-binding protein (TBP) core domain, the TBPc part of the chimera Brf1N-TBPc-Brf1C (Saccharomyces cerevisiae); test: as above
[5] = target: T1, C34 subunit of Pol III (Saccharomyces cerevisiae); test: cryo-EM structure; Pol III nOC (natural OC), 4.8 Å: same assembly on the CC scaffold, a fully complementary duplex that was found melted; both purified
[6] = target: T2, TATA box-binding protein (TBP) core domain, the TBPc part of the chimera Brf1N-TBPc-Brf1C (Saccharomyces cerevisiae); test: as above
[7] = target: T3, Brf1 (TFIIB-related factor), the Brf1N and Brf1C parts of the chimera Brf1N-TBPc-Brf1C (Saccharomyces cerevisiae) (UniProt P29056); test: cryo-EM structure; Pol III ITC, 4.1 Å: Pol III (~1 µM) with biotinylated tN(GUU)C promoter scaffold (16-nt mismatched bubble, 6-nt RNA), then Brf1N-TBPc-Brf1C and Bdp1 at about 2:1 to Pol III, room temperature; held on streptavidin beads, eluted with EcoRI-HF, crosslinked with 0.19% glutaraldehyde; both purified
T3 sequence: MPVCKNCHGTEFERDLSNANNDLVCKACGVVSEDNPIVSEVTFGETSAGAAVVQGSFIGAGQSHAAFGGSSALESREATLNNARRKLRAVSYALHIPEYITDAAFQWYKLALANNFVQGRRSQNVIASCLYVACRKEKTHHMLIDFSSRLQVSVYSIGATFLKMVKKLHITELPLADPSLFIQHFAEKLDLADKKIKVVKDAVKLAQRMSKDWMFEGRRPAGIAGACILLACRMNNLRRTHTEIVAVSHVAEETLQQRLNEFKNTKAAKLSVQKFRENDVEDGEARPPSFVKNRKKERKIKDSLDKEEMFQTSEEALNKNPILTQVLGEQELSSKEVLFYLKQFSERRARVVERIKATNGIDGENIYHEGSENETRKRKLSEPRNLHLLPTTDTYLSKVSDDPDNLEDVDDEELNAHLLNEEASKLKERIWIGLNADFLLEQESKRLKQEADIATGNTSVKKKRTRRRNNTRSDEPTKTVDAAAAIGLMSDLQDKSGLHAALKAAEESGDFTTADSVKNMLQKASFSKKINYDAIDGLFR

[8] = target: T3, Brf1 (TFIIB-related factor), the Brf1N and Brf1C parts of the chimera Brf1N-TBPc-Brf1C (Saccharomyces cerevisiae); test: cryo-EM structure; Pol III OC, 4.1 Å (TFIIIB 4.7 Å with soft mask): same assembly on the OC scaffold with a 10-nt mismatched bubble; both purified
[9] = target: T3, Brf1 (TFIIB-related factor), the Brf1N and Brf1C parts of the chimera Brf1N-TBPc-Brf1C (Saccharomyces cerevisiae); test: cryo-EM structure; Pol III nOC (natural OC), 4.8 Å: same assembly on the CC scaffold, a fully complementary duplex that was found melted; both purified

Measured: binding

B1: Brf1 (TFIIB-related factor), the Brf1N and Brf1C parts of the chimera Brf1N-TBPc-Brf1C (domain or fragment, UniProt P29056 1-382; P29056 439-596)
chain: MPVCKNCHGTEFERDLSNANNDLVCKACGVVSEDNPIVSEVTFGETSAGAAVVQGSFIGAGQSHAAFGGSSALESREATLNNARRKLRAVSYALHIPEYITDAAFQWYKLALANNFVQGRRSQNVIASCLYVACRKEKTHHMLIDFSSRLQVSVYSIGATFLKMVKKLHITELPLADPSLFIQHFAEKLDLADKKIKVVKDAVKLAQRMSKDWMFEGRRPAGIAGACILLACRMNNLRRTHTEIVAVSHVAEETLQQRLNEFKNTKAAKLSVQKFRENDVEDGEARPPSFVKNRKKERKIKDSLDKEEMFQTSEEALNKNPILTQVLGEQELSSKEVLFYLKQFSERRARVVERIKATNGIDGENIYHEGSENETRKRKLSEPRNLHLLPTTDTYLSKVSDDPDNLEDVDDEELNAHLLNEEASKLKERIWIGLNADFLLEQESKRLKQEADIATGNTSVKKKRTRRRNNTRSDEPTKTVDAAAAIGLMSDLQDKSGLHAALKAAEESGDFTTADSVKNMLQKASFSKKINYDAIDGLFR
not listed: [7] | [8] | [9]
binds: all other assays above

B2: Bdp1 (B double prime) (protein, UniProt P46678 1-594)
chain: MSSIVNKSGTRFAPKVRQRRAATGGTPTPKPRTPQLFIPESKEIEEDNSDNDKGVDENETAIVEKPSLVGERSLEGFTLTGTNGHDNEIGDEGPIDASTQNPKADVIEDNVTLKPAPLQTHRDQKVPRSSRLASLSKDNESRPSFKPSFLDSSSNSNGTARRLSTISNKLPKKIRLGSITENDMNLKTFKRHRVLGKPSSAKKPAGAHRISIVSKISPPTAMTDSLDRNEFSSETSTSREADENENYVISKVKDIPKKVRDGESAKYFIDEENFTMAELCKPNFPIGQISENFEKSKMAKKAKLEKRRHLRELRMRARQEFKPLHSLTKEEQEEEEEKRKEERDKLLNADIPESDRKAHTAIQLKLNPDGTMAIDEETMVVDRHKNASIENEYKEKVDENPFANLYNYGSYGRGSYTDPWTVEEMIKFYKALSMWGTDFNLISQLYPYRSRKQVKAKFVNEEKKRPILIELALRSKLPPNFDEYCCEIKKNIGTVADFNEKLIELQNEHKHHMKEIEEAKNTAKEEDQTAQRLNDANLNKKGSGGIMTNDLKVYRKTEVVLGTIDDLKRKKLKERNNDDNEDNEGSEEEPEIDQ
binds: [7] | [8] | [9]
